This is one part of the list. Single values are uncertain, as repeats are few or missing.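 Cells were imaged in 1,536-well plates, and nuclei stained with an antibody against cleaved PARP were counted against all DNA-stained nuclei to give the apoptosis fraction. Screening doses were chosen to leave most cells alive, and resting and induced cleaved-PARP levels differ strongly between cell lines.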

Here are results for eight compounds from the supplement of paper PMC4604168 (melanoma cell lines).

Among the test systems are A101D; A2058; A375; C32; CBRC008; CBRC014; CBRC016; CBRC017; CBRC034; COLO792; COLO800; COLO829; G361; IPC-298; IST-MEL1; LOXIMVI; MEL-HO.
Common to all, as to assay: cleaved PARP positive nuclei fraction relative to DMSO control; melanoma cells; higher = more apoptosis
Conditions in all cases: library dose: low library concentration; 72 h

`Cc1cn(-c2cc(NC(=O)c3ccc(C)c(Nc4nccc(-c5cccnc5)n4)c3)cc(C(F)(F)F)c2)cn1` [nilotinib] + CCCS(=O)(=O)Nc1ccc(F)c(C(=O)c2c[nH]c3ncc(Cl)cc23)c1F [PLX4720] (first compound 0.2 µM, partner dose 0.08 µM): the “cleaved PARP positive nuclei fraction” value amounted to 161% with A101D; 188% with A2058; 271% in the test with A375; 172% with C32; 95.4% in the test on CBRC008 (line from a melanoma biopsy); 109% in the test on CBRC014 (line from a melanoma biopsy). Moreover, the “cleaved PARP positive nuclei fraction” value in the test on CBRC016 (line from a melanoma biopsy) turned out to be 108%; with CBRC017 it was 112%; in the test with CBRC034, 65.1%; in the test on COLO792, 95.3%; with COLO800, 121%; in the test with COLO829 it was 79.2%. Besides, the “cleaved PARP positive nuclei fraction” value in the test on G361 was 181%; in the test on IPC-298 it was 179%; with IST-MEL1, 176%; in the test with LOXIMVI, 122%; in the test with MEL-HO, 150%.
`O=C(Nc1cc(C(F)(F)F)cc(C(F)(F)F)c1)c1cc(Cl)ccc1O` + Cc1cc([N+](=O)[O-])ccc1NS(=O)(=O)c1cc(Cl)ccc1Cl [FH535] (first compound 0.016 µM, partner dose 1 µM): the “cleaved PARP positive nuclei fraction” value in the test on A101D is 9.38%; with A2058, 160%; in the test on C32, 72.4%; in the test with CBRC008, 496%; in the test with CBRC014, 154%; in the test with CBRC016, 2120%. For the same compound, the “cleaved PARP positive nuclei fraction” value was 346% in the test on CBRC017 (line from a melanoma biopsy); 125% with COLO792; 85.2% in the test on COLO800; 66.1% in the test on COLO829; 118% with G361; 56.8% with IPC-298. In addition, the entries for the “cleaved PARP positive nuclei fraction” value in the test on IST-MEL1 and in the test on LOXIMVI were 146% and 47.9%, respectively.
On to `COc1cc([C@@H]2c3cc4c(cc3[C@@H](O[C@@H]3O[C@@H]5CO[C@@H](C)O[C@H]5[C@H](O)[C@H]3O)[C@H]3COC(=O)[C@H]23)OCO4)cc(OC)c1O` [etoposide] + Cc1cn(-c2cc(NC(=O)c3ccc(C)c(Nc4nccc(-c5cccnc5)n4)c3)cc(C(F)(F)F)c2)cn1 [nilotinib] (first compound 0.02 µM, partner dose 0.2 µM), for which the “cleaved PARP positive nuclei fraction” value in the test with A101D is 92.9%; in the test on A2058, 172%; in the test with A375 it was 118%; in the test on C32, 156%; in the test on CBRC008 it was 103%; with CBRC014 it was 103%. For the same compound, the “cleaved PARP positive nuclei fraction” value in the test with CBRC016 came out at 96.3%; with CBRC017, 102%; with CBRC034, 32.2%; with COLO792, 191%; with COLO800, 204%; in the test with COLO829, 122%. Also, the “cleaved PARP positive nuclei fraction” value in the test on G361 worked out at 129%; in the test with IPC-298, 58.6%; with IST-MEL1, 95.4%; with LOXIMVI, 116%; in the test with MEL-HO, 47.9%.
As to `O=c1[nH]nc(Sc2ncc([N+](=O)[O-])s2)n1-c1ccc2c(c1)OCCO2` + CS(=O)(=O)CCNCc1ccc(-c2ccc3ncnc(Nc4ccc(OCc5cccc(F)c5)c(Cl)c4)c3c2)o1 [lapatinib] (first compound 0.2 µM, partner dose 0.8 µM), the “cleaved PARP positive nuclei fraction” value with A101D amounted to 84.6%; with A2058, 221%; in the test with A375, 31.1%; in the test on C32, 80.9%; in the test with CBRC008, 109%; with CBRC014, 112%. Moreover, the “cleaved PARP positive nuclei fraction” value in the test with CBRC016 is 94.3%; in the test on CBRC017 it was 122%; with CBRC034, 87.4%; in the test with COLO792, 136%; in the test with COLO800 it was 147%; in the test with COLO829, 111%. Besides, the “cleaved PARP positive nuclei fraction” value with G361 came out at 124%; in the test with IPC-298 it was 91.3%; in the test with IST-MEL1 it was 122%; with LOXIMVI, 114%; in the test on MEL-HO, 70.4%.
For the compound `COc1cc([C@@H]2c3cc4c(cc3[C@@H](O[C@@H]3O[C@@H]5CO[C@@H](C)O[C@H]5[C@H](O)[C@H]3O)[C@H]3COC(=O)[C@H]23)OCO4)cc(OC)c1O` [etoposide] + O=c1cc(-c2cccc3c2Sc2ccccc2S3)oc(N2CCOCC2)c1 [KU55933] (first compound 0.02 µM, partner dose 1 µM), the “cleaved PARP positive nuclei fraction” value with A101D came out at 26.3%; in the test with A2058 it was 56.5%; with C32, 83.8%; with CBRC008 it was 147%; in the test on CBRC014, 87.9%; with CBRC016, 124%. Moreover, the “cleaved PARP positive nuclei fraction” value came to 105% in the test with CBRC017; 122% with COLO792; 108% in the test on COLO800; 19.7% with COLO829; 84.6% with G361; 91.8% in the test on IPC-298. Moreover, the results for the “cleaved PARP positive nuclei fraction” value in the test on IST-MEL1 and with LOXIMVI were 87.6% and 134%, respectively.
For the compound `O=c1[nH]nc(Sc2ncc([N+](=O)[O-])s2)n1-c1ccc2c(c1)OCCO2` + OCc1c[nH]c2ccccc12 [Indole-3-carbinol] (first compound 0.2 µM, partner dose 0.8 µM), the “cleaved PARP positive nuclei fraction” value turned out to be 315% in the test with A101D; 172% in the test with A2058; 158% in the test on A375; 78.2% in the test with C32; 91.1% with CBRC008; 102% in the test with CBRC014. The “cleaved PARP positive nuclei fraction” value in the test with CBRC016 came to 101%; with CBRC017 it was 115%; with CBRC034, 140%; in the test with COLO792 it was 129%; with COLO800 it was 127%; in the test on COLO829, 123%. Also, the “cleaved PARP positive nuclei fraction” value was 56.5% in the test with G361; 332% in the test with IPC-298; 62.5% with IST-MEL1; 199% in the test with LOXIMVI; 119% in the test on MEL-HO.
Consider `O=C(/C=C/c1cccnc1)NCCCCC1CCN(C(=O)c2ccccc2)CC1` + Nc1nc(F)nc2c1ncn2[C@@H]1O[C@H](CO)[C@@H](O)[C@@H]1O [fludarabine] (first compound 0.01 µM, partner dose 0.2 µM), for which the “cleaved PARP positive nuclei fraction” value stood at 99.9% with A101D; 22.2% in the test with A2058; 3160% with A375; 41.7% in the test on C32; 3960% in the test on CBRC008; 217% with CBRC014. For the same compound, the “cleaved PARP positive nuclei fraction” value in the test on CBRC016 amounted to 903%; in the test with CBRC017, 496%; with CBRC034, 2100%; in the test on COLO792 it was 333%; with COLO800 it was 67%; in the test with COLO829, 68.5%. The “cleaved PARP positive nuclei fraction” value in the test on G361 worked out at 1320%; in the test with IPC-298, 193%; with IST-MEL1, 35.9%; with LOXIMVI, 92.7%; in the test on MEL-HO it was 63.1%.
In the case of `O=C(/C=C/c1cccnc1)NCCCCC1CCN(C(=O)c2ccccc2)CC1` + CCN(CC)CCCCNc1ncc2cc(-c3cc(OC)cc(OC)c3)c(NC(=O)NC(C)(C)C)nc2n1 [PD173074] (first compound 0.01 µM, partner dose 0.1 µM), the “cleaved PARP positive nuclei fraction” value in the test with A101D turned out to be 15.2%; in the test on A2058, 83.7%; in the test with C32, 127%; with CBRC008 it was 2880%; in the test with CBRC014 it was 95.3%; in the test with CBRC016, 425%. Besides, the “cleaved PARP positive nuclei fraction” value with CBRC017 came out at 248%; with COLO792 it was 305%; with COLO800, 150%; with COLO829 it was 268%; in the test with G361, 2080%; in the test on IPC-298 it was 117%. In addition, the entries for the “cleaved PARP positive nuclei fraction” value in the test with IST-MEL1 and with LOXIMVI were 126% and 53.4%, respectively.
